Measured values reported in publication doi:10.1101/822270.
These are yes or no findings as the source states them, for the method shown. In cells and extracts the contact can be indirect. Some binding calls cover weakened binding; strength is not graded here. Sequences can lack the tags named with a protein.

Key:
Test in all cases: pull-down
TMTC1 S-tag = target: T1, TMTC1 S-tag (UniProt Q8IUR5)
T1 sequence: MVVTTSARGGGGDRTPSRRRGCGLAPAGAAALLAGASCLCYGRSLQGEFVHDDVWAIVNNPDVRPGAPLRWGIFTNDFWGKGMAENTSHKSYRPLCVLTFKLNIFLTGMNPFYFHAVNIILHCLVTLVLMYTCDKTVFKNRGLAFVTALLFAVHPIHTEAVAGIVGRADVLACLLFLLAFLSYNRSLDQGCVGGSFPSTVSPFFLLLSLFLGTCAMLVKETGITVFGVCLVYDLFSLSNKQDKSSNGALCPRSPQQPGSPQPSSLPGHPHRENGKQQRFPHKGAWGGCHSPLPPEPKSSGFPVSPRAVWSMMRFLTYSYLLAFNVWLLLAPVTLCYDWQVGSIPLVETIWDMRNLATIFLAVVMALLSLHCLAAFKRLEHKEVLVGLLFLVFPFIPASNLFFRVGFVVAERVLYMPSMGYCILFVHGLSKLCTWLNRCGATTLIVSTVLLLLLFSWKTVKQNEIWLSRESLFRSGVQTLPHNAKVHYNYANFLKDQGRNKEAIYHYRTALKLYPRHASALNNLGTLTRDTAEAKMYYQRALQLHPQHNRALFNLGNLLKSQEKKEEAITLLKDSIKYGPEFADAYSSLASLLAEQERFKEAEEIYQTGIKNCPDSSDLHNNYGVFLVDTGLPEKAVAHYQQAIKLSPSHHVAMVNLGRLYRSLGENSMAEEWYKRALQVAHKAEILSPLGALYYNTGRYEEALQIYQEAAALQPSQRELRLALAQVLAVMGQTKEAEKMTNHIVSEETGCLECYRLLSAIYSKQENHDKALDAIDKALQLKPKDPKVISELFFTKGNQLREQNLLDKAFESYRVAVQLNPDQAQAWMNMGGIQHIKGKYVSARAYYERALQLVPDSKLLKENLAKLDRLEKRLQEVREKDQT

TMTC2 S-tag = target: T2, TMTC2 S-tag (UniProt Q8N394)
T2 sequence: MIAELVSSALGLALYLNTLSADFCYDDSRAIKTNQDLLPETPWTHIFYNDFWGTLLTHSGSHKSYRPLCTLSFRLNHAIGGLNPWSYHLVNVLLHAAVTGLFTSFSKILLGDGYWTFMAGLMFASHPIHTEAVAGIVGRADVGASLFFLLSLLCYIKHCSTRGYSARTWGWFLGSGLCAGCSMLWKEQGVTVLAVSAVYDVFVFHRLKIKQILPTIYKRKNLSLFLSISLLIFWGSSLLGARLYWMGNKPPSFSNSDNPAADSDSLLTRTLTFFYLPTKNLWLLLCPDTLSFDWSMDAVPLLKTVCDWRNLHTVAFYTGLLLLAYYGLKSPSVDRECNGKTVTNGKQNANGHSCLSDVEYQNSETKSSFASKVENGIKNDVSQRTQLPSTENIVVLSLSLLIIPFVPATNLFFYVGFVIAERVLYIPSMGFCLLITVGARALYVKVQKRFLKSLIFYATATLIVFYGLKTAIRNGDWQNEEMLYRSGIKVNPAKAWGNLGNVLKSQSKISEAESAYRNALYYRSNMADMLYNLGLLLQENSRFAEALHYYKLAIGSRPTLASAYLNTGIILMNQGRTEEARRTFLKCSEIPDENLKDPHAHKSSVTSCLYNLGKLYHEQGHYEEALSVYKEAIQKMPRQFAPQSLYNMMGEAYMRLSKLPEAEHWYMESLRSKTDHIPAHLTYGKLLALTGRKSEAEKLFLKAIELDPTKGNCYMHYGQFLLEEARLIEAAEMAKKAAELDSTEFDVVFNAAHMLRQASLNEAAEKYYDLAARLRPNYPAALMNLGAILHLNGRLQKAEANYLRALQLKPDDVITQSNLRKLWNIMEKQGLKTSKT

TMTC4 S-tag (human) = target: T3, TMTC4 S-tag (human) (UniProt Q5T4D3)
T3 sequence: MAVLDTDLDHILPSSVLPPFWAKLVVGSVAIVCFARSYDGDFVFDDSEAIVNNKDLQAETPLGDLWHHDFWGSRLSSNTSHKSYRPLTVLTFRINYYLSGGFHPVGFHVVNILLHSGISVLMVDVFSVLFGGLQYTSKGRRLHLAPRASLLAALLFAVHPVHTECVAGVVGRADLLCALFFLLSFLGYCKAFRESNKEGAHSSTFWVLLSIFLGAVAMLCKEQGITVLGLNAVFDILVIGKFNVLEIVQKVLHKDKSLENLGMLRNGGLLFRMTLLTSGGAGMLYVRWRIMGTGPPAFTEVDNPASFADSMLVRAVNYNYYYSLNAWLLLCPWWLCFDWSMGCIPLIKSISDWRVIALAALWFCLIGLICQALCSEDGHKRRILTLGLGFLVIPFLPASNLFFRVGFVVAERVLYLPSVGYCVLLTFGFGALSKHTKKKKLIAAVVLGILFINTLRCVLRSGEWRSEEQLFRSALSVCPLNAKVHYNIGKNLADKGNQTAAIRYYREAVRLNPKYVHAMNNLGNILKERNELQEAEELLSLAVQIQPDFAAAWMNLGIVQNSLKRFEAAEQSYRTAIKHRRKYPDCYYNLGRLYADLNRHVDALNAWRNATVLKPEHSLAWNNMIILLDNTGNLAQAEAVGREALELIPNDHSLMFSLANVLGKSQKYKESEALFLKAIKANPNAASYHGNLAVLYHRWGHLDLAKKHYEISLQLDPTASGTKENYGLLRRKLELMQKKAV

TMTC3 S-tag (human) = target: T4, TMTC3 S-tag (human) (UniProt Q6ZXV5)
T4 sequence: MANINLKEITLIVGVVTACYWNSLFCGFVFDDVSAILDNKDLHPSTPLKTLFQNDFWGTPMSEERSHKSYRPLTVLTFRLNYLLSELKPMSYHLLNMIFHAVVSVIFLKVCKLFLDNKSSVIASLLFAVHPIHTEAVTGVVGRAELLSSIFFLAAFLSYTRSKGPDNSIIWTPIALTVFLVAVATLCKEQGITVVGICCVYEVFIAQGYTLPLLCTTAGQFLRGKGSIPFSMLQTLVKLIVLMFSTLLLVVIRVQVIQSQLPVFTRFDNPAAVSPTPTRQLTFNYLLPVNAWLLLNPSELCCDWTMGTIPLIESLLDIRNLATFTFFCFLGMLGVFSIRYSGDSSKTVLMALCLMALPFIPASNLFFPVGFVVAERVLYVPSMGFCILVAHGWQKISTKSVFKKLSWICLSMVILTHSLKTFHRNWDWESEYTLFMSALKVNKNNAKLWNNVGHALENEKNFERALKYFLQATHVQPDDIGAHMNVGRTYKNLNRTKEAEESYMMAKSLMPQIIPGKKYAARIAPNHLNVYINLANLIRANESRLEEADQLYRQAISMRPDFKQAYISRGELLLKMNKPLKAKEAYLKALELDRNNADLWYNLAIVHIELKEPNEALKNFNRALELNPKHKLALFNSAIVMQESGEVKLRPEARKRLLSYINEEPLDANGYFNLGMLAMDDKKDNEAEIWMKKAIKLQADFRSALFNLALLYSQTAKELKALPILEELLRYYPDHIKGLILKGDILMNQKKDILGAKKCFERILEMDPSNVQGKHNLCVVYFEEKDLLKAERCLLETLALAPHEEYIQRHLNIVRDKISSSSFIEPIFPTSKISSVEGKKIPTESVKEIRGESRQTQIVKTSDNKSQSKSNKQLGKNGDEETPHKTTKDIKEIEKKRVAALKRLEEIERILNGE

SERCA2B (from UniProt P16615-1 1-1042)
binding (TMTC1 S-tag): binds
binding (TMTC2 S-tag): binds
binding (TMTC4 S-tag (human)): binds
binding (TMTC3 S-tag (human)): no binding
